# No constants are given. Whether binding was seen depends on the method and setting. Binding can be weak; no strength is given.
# B1: GmPMM (soybean phosphomannomutase) in the pGADT7 prey vector (enzyme, UniProt Q1W376 1-247)
# chain: MAARRPGLIALFDVDGTLTAPRKVVTPEMLTFMQELRKVVTVGVVGGSDLIKISEQLGSTVTNDYDYVFSENGLVAHKEGKLIGTQSLKSFLGEEKLKEFINFTLHYIADLDIPIKRGTFIEFRSGMLNVSPIGRNCSQEERDEFEKYDKVHNIRPKMVSVLREKFAHLNLTFSIGGQISFDVFPQGWDKTYCLRYLDGFNEIHFFGDKTYKGGNDHEIYESERTVGHTVTSPDDTVKQCKSLFLEN
# Target: GmHXK2 (soybean hexokinase 2) in the pGBKT7 bait vector (soybean (Glycine max))
# Experiment: two-hybrid; GmHXK2 in pGBKT7 (bait) and GmPMM in pGADT7 (prey) co-transformed into Y2HGold yeast; growth on SD/-Leu/-Trp and SD/-Ade/-His/-Leu/-Trp; empty-vector controls showed no self-activation
binder,measurement,value
B1,binding,binds

# — publication PMC11210165
